Assay results from PubChem BioAssay AID493014 (National Center for Advancing Translational Sciences (NCATS), 2011).
About 170 (0.05%) of roughly 340,000 compounds were called active. This list was built around the results that the source calls inconclusive (neither active nor inactive); the mix of calls is not that of the screen. The call rests on the fitted dose curve; in most records, active means well fitted inhibition curve with a large enough effect in the signal ratio, with a control signal flat (not every such curve was filed as active); inconclusive means small, poorly fitted or top-dose-only effect, or effect the other way, or a change in a side signal; inactive means flat fitted curve, though single readings scatter; the % refers to the signal ratio. A potency beside an inconclusive call is a rough fit, not a confirmed value.

experiment: qHTS Assay to Find Inhibitors of Chronic Active B-Cell Receptor Signaling; details: ABC-DLBCL IkBa-CBG/CBR reporter, luminescence ratio (green luciferase fused to IkBa over red control in TMD8 lymphoma cells), 4 h; activity change, negative = inhibition: at 46.1 µM (top of the series) unless noted;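 on activity change, negative = inhibition: plate controls were basal doxycycline-induced cells for no effect and cells given 10 µM MG132 for full effect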
How it was run: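 Doxycycline induced both beetle luciferases in TMD8 lymphoma cells; IKK-driven degradation limits the IkappaBalpha-fused green signal, while red luminescence normalises for cell number and nonspecific effects. Compounds tested up to 46 uM, 4 hrs.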
Potency means the concentration at half of the fitted maximal effect.

SMILES	activity change, negative = inhibition	Potency
COc1ccc(-c2noc(CCCC(=O)NCc3ccco3)n2)cc1OC	inconclusive: -1%	
COc1ccc(NC(=O)CN(C)C(=O)c2ccc(OCc3ccccc3)c(OC)c2)cc1	inconclusive: 17.5%	
Cc1ccc(C2CCN(C(=S)NC(C)(C)C)C2)cc1 (stereo not drawn)		inconclusive: 2.51 µM [rising, full curve]
Nc1nnnn1/N=C/c1ccccc1OCc1ccc(Cl)cc1	inconclusive: 8.75%	
S=c1[nH]nc(-c2cc(-c3ccccc3)n[nH]2)n1/N=C/c1ccc(Br)s1	inconclusive: -27.7%	
COc1ccccc1OCC(=O)N/N=C1\CCCCc2ccccc21	inconclusive: 1.6%	
Cc1cc(C)nc(NS(=O)(=O)c2ccc(N/C=C3\CCCC3=O)cc2)n1	inconclusive: -0.593%	
Cc1ccc(-n2nnnc2Sc2nc([N+](=O)[O-])nn2C)cc1C	inconclusive: -4.67%	
O=C(c1ccccc1)c1cc2ccc(O)cc2oc1=O		inconclusive: 35.5 µM [falling, single point]
Cn1nc([N+](=O)[O-])nc1Sc1cccc2cccnc12		inconclusive: 28.2 µM [falling, single point]
COc1ccc(CCN2C(=O)CSC2c2ccc(OC)c(OC)c2)cc1OC (stereo not drawn)		inconclusive: 1.26 µM [falling, partial curve, poor fit]
CCCCC(=O)Nc1ccc(C)c(S(=O)(=O)N2CCCCCC2)c1	inconclusive: -0.962%	
O=C(c1cc2cc(Br)ccc2o1)N1CCN(c2ccccc2)CC1		inconclusive: 3.55 µM [falling, partial curve, poor fit]
COC(=O)c1cnc(Oc2ccc(NC(=O)NC(=O)c3c(OC)cccc3OC)cc2)cc1C(F)(F)F		inconclusive: 0.501 µM [falling, full curve, poor fit]
O=C(COc1cccc(F)c1)N[C@@H](Cc1ccccc1)c1nc2ccccc2[nH]1		inconclusive: 6.51 µM [falling, partial curve, poor fit]
CCC1CCCCN1C(=O)COC(=O)c1cccs1 (stereo not drawn)	inconclusive: 8.36%	
CN(CC(O)Cn1cnc2c1c(=O)n(C)c(=O)n2C)c1ccccc1 (stereo not drawn)	inconclusive: 13.7%	
C=CCNC(=O)/C(C#N)=C/c1cn(-c2ccccc2)nc1-c1ccc(OC)c([N+](=O)[O-])c1	inconclusive: -19.4%	
CN(CCC(=O)Nc1ccc(Br)cc1)Cc1ccccc1		inconclusive: 10.3 µM [rising, partial curve, poor fit]
COc1cccc(C(=O)NNC(=O)C(=O)Nc2ccc(C)c(Cl)c2)c1		inconclusive: 20 µM [falling, partial curve]
Cc1c(C#N)c(O)n(CCO)c(=O)c1N=Nc1ccc(S(N)(=O)=O)cc1		inconclusive: 25.1 µM [rising, partial curve, poor fit]
COc1ccc(S(=O)(=O)N2CCC(C(=O)NC3CCCCC3)CC2)cc1OC	inconclusive: 3.84%	
O=c1cc(CSc2nnc(Nc3ccccc3F)s2)nc2sccn12		inconclusive: 11.2 µM [falling, partial curve]
Cc1ccc(S(=O)(=O)Nc2cc(-c3nn(C)c(=O)c4ccccc34)ccc2N2CCOCC2)cc1		inconclusive: 29.1 µM [falling, single point]
Clc1ccccc1COc1ccc(/C=N/n2cnnc2)cc1	inactive	
Cc1ccc(S(=O)(=O)N(C)C)cc1NC(=O)c1ccccc1Br	inconclusive: -0.526%	

SMILES	activity change, negative = inhibition	Potency
CCn1c(CNC(=O)COc2ccc(C(C)C)cc2)nnc1SCC(=O)Nc1ccccc1C(C)C	inactive	
CCOc1ccccc1C(C(=O)NCCOC)N(CCOC)C(=O)Cn1nnc2ccccc21 (stereo not drawn)	inconclusive: 14.2%	
O=C(Nc1cccc([N+](=O)[O-])c1)c1ccc2nsnc2c1	inconclusive: -2.89%	
CCC(CO)NCc1ccc(OCC(O)c2ccccc2)c(OC)c1 (stereo not drawn)	inactive	
COc1cc(-c2[nH]ncc2CN(C)Cc2nonc2C)cc(OC)c1OC	inactive	
O=C(Cc1nc(=O)c2ccccc2s1)Nc1ccccc1		inconclusive: 7.08 µM [falling, partial curve]
CCOC(=O)N1CCN(CC(=O)c2ccc(O)c(C)c2O)CC1	inactive	
CCOc1ccccc1N(CC(=O)N/N=C/c1cc(Br)ccc1OC)S(C)(=O)=O	inconclusive: -11.1%	
Cc1[nH]c2c(C)cccc2c1CN1CCC(CO)(Cc2ccccc2)CC1	inconclusive: 2.22%	
Cc1noc(C)c1CSCC(=O)Nc1cc(S(=O)(=O)N2CCCCC2)ccc1OC(C)C	inactive	
CSc1ccccc1NC(=O)CSCc1ccccc1Br		inconclusive: 3.16 µM [falling, partial curve, poor fit]
COCc1nc2oc3ccc(F)cc3c(=O)c2cc1C(=O)OC	inconclusive: 6.51%	
O=C(NCc1ccccn1)c1cc(-c2ccc(Br)cc2)nc2ccccc12	inactive	
C=CCn1cc(C(=O)NCc2ccc3c(c2)OCO3)c(=O)c2cc(S(=O)(=O)N(CC)CC)ccc21	inconclusive: -0.193%	
CCOc1ccc(NC(=O)C2=C(C)C(=O)OC23CCC(C)CC3)cc1 (stereo not drawn)	inconclusive: -16.9%	
COc1cc(NC(=O)C(C)Oc2ccccc2)ccc1NC(=O)COc1ccccc1 (stereo not drawn)	inconclusive: 16.7%	
COc1ccccc1NS(=O)(=O)c1ccc(OC)c([N+](=O)[O-])c1	inconclusive: -3.38%	
Cc1ccccc1N1C(S)=C(C#N)C(=O)NC1c1ccco1 (stereo not drawn)		inconclusive: 35.5 µM [falling, single point]
O=C(CSCc1nc2ccccc2[nH]1)N1CCN(c2cccc(Cl)c2)CC1		inconclusive: 22.4 µM [falling, partial curve, poor fit]
O=C(COc1cccc2cccnc12)Nc1ccccc1N1CCOCC1	inconclusive: 14.6%	
CCCCOc1ccc(Cl)cc1CSc1nnc(CC)n1N	inconclusive: 3.54%	
CCCC(=O)Nc1nc(-c2ccc3c(c2)CCN3S(C)(=O)=O)cs1	inconclusive: 9.68%	
CCN(CCN(C)C)C(=O)c1ccc2c(c1NCCO)C(=O)c1ccccc1C2=O		inconclusive: 0.447 µM [rising, partial curve, poor fit]
Oc1ccc(N=Nc2n[nH]c(-c3ccc(Br)cc3)n2)cc1		inconclusive: 5.8 µM [falling, partial curve, poor fit]
CC(NS(=O)(=O)c1ccc(Br)cc1)C(=O)NCc1ccco1 (stereo not drawn)	inactive	
COC(=O)c1ccc(C)c(NC(=O)Cn2cnc3ccccc3c2=O)c1		inconclusive: 4.11 µM [falling, single point]

Entries of single compounds as entered above.
`COc1cc(-c2[nH]ncc2CN(C)Cc2nonc2C)cc(OC)c1OC` is entered as activity change, negative = inhibition: inactive
`CCOC(=O)N1CCN(CC(=O)c2ccc(O)c(C)c2O)CC1` is entered as activity change, negative = inhibition: inactive

Further entries follow.

SMILES	activity change, negative = inhibition	Potency
COc1ccc2[nH]c3c4c(ccc3c2c1)C(=O)C=CC4=O	inconclusive: 43.3%	
CCCCn1c(NCc2ccc3c(c2)OCO3)nc2ccccc21	inconclusive: -1.83%	
CC1C(O)=C(c2nc3ccccc3[nH]2)C(=N)N1c1ccccc1 (stereo not drawn)	inactive	
OCC1CCCN(c2nc(CN3CCCCC3)nc3scc(-c4ccccc4)c23)C1 (stereo not drawn)	inconclusive: -9.95%	
CN(CC(=O)NCCc1ccc(F)cc1)Cc1cccc(Cl)c1	inconclusive: -18.1%	
COc1cccc(NC(=S)N(CCc2c(C)[nH]c3ccccc23)Cc2cccs2)c1	inconclusive: -9.8%	
COCCCn1c(SCc2cccc(OC)c2)nc2cc(OC)c(OC)cc2c1=N	inconclusive: 1.25%	
C=CCOc1ccc(CNCCc2ccc(S(N)(=O)=O)cc2)cc1		inconclusive: 35.5 µM [falling, single point]
O=c1[nH]c2sc3c(c2c(=O)n1Cc1ccccc1)CCC3	inconclusive: 0.945%	
CCOC(=O)/C(C#N)=C/c1ccc(OC(=O)c2ccccn2)cc1	inactive	
Cc1ccc(/C(O)=C/C(=O)C(=O)NC23CC4CC(CC(C4)C2)C3)cc1	inactive	
Cc1ccc(C(=O)NCC(=O)NCC(=O)OCc2ccc(Cl)cc2)cc1	inconclusive: 14.3%	
Cc1ccnc(NC(=O)CCC(=O)N(CC(=O)NCCc2ccccc2)c2ccccc2F)c1	inconclusive: 1.59%	
Nc1nc(Nc2cccc(Cl)c2)sc1C(=O)c1ccc(F)cc1	inconclusive: 18.6%	
Cc1noc(C)c1COc1ccc(C(=O)NCCc2ccccn2)cc1	inconclusive: 10.2%	
CC(C)c1ccc(NC(=S)N2CCCC(c3ccc(F)cc3)=N2)cc1		inconclusive: 8.91 µM [rising, partial curve, poor fit]
Cc1c(C(=O)NCc2cccnc2)oc2ccc(S(=O)(=O)N3CCCCCC3)cc12	inactive	
CCCNC(=S)Nc1ccc(Br)cc1	inconclusive: -0.0866%	
COCCn1c(SCC(=O)NC(=O)NCc2ccccc2)nc2ccccc21	inactive	
COc1ccc(/C(C)=N/NC(=O)CN(c2ccc(OC)cc2)S(=O)(=O)c2ccccc2)cc1	inactive	
COc1ccc(CC(=O)NNc2ncnc3c2cnn3-c2ccc(C)cc2)cc1OC		inconclusive: 0.82 µM [rising, full curve]
CCOc1ccc2nc(NCCCNC(=O)c3cc(OC)c(OC)c(OC)c3)c(C#N)cc2c1	inconclusive: -1.39%	
CCCOc1c(Br)cc(C2C3=C(CCCC3=O)N(CC)C3=C2C(=O)CCC3)cc1OC	inactive	
O=C(NC1CCCC1)C(c1cccs1)N(Cc1ccco1)C(=O)Cn1nnc(-c2cccs2)n1 (stereo not drawn)	inconclusive: -1.49%	
CC(OC(=O)/C(C#N)=C/c1ccc(N(C)C)cc1)C(=O)N(C)Cc1ccccc1 (stereo not drawn)	inconclusive: -3.82%	
O=C(Nc1ccccc1)C1=C[C@H](C2CC2)C[C@H](OCCCCO)O1	inconclusive: 19.9%	

3 compounds picked at random from those above, as already listed:
SMILES	activity change, negative = inhibition	Potency
O=C(NCc1ccccn1)c1cc(-c2ccc(Br)cc2)nc2ccccc12	inactive	
Cc1c(C(=O)NCc2cccnc2)oc2ccc(S(=O)(=O)N3CCCCCC3)cc12	inactive	
Cc1ccc(C2CCN(C(=S)NC(C)(C)C)C2)cc1 (stereo not drawn)		inconclusive: 2.51 µM [rising, full curve]
